Assay results from the supplement of paper PMC10849652.
Some of the results follow.

Chains of the proteins cited; added tags and fusions are not shown. Lines headed by an entry give the natural chain unless they say otherwise; changes in a name come on top.
UniProt Q7Z460: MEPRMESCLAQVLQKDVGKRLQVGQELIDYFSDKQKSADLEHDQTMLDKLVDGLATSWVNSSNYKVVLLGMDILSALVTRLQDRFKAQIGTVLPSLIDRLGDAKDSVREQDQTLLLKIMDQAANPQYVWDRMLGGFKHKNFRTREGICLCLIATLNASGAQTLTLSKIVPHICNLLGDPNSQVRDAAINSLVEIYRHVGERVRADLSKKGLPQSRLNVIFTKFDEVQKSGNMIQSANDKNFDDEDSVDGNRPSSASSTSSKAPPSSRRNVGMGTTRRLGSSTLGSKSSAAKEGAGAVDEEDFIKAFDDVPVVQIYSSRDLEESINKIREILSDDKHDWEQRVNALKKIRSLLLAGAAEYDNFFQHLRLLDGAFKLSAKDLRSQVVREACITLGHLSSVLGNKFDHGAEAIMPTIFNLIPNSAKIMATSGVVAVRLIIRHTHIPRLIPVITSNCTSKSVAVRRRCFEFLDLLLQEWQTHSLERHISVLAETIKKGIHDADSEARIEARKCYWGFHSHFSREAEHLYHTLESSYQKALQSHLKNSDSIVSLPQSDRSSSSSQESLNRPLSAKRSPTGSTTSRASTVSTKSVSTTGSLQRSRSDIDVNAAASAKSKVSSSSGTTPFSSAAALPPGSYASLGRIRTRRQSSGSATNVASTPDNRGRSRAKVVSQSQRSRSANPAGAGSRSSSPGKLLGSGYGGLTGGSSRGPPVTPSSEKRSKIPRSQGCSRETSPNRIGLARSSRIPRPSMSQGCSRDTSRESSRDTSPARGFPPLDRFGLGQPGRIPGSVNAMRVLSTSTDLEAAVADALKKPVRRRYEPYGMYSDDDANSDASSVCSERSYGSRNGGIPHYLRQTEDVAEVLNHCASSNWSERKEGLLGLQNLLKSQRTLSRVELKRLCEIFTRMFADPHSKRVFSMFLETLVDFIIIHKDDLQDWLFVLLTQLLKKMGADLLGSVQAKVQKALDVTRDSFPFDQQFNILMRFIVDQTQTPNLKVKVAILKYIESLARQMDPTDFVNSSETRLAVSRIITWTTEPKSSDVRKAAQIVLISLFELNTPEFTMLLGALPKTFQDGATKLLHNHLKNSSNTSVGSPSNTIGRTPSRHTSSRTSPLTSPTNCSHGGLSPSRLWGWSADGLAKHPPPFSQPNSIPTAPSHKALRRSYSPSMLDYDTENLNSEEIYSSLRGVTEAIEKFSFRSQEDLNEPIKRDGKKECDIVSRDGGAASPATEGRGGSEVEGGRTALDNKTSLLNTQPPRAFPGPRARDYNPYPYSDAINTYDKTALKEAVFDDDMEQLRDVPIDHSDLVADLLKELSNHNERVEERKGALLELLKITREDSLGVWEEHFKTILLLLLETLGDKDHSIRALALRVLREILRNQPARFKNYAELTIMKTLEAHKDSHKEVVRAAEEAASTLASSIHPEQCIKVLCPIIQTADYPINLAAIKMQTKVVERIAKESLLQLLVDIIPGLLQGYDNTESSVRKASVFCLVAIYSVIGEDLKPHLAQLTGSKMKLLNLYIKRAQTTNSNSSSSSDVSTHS
UniProt Q9BQ75: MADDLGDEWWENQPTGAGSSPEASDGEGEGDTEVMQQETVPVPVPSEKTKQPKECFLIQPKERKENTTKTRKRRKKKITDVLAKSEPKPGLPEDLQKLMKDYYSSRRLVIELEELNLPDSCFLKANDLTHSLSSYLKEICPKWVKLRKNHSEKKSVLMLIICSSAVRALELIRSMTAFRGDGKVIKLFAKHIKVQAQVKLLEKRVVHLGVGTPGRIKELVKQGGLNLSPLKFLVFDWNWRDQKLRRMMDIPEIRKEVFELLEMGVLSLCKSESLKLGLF
UniProt Q6FI81: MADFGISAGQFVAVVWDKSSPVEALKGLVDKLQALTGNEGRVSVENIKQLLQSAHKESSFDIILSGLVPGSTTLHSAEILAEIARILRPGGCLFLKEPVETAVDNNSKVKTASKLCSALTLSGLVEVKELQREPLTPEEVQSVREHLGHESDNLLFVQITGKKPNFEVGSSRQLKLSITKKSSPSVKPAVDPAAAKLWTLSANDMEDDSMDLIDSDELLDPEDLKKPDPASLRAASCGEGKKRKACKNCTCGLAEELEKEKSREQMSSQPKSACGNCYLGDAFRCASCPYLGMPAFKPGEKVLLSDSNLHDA
UniProt P05452, whole entry, looked up: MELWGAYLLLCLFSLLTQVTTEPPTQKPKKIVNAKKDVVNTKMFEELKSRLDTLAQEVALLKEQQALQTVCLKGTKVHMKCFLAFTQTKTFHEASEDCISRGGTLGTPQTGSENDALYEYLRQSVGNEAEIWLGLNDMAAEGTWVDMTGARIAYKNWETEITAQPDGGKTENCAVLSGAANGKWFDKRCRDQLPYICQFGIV
UniProt P30085: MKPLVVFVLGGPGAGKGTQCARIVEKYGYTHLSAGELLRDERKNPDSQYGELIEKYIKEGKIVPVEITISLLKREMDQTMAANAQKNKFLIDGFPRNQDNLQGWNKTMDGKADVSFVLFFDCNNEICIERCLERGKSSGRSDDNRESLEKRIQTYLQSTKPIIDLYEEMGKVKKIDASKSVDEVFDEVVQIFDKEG
UniProt Q2KHT3: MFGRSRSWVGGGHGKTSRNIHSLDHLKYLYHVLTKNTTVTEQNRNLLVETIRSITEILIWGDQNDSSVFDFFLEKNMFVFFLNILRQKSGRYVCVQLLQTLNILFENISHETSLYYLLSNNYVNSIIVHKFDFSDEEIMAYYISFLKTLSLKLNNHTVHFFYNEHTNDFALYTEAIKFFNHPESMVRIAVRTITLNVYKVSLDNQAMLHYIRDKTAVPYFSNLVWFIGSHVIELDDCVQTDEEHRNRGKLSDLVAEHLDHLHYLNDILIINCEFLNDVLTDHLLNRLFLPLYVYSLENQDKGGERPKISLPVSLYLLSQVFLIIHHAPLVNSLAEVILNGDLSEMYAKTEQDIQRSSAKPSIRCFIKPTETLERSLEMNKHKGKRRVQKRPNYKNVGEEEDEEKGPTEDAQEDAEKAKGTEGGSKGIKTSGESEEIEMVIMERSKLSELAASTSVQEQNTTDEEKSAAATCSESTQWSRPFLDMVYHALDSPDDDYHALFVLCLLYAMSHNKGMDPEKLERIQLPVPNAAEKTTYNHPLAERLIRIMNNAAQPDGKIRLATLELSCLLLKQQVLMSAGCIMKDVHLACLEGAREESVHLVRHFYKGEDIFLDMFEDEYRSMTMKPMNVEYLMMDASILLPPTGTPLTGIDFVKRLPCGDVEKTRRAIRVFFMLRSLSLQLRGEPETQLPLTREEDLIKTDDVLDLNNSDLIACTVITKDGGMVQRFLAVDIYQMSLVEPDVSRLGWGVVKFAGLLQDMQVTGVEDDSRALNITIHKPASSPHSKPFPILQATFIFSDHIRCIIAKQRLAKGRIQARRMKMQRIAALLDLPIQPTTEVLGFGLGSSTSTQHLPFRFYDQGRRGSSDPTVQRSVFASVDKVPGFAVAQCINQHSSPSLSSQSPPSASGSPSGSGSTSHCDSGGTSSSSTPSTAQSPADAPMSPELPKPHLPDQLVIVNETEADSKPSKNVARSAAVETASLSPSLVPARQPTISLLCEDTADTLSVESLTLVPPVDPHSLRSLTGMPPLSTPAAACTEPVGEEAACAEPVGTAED
UniProt Q6P4Q7: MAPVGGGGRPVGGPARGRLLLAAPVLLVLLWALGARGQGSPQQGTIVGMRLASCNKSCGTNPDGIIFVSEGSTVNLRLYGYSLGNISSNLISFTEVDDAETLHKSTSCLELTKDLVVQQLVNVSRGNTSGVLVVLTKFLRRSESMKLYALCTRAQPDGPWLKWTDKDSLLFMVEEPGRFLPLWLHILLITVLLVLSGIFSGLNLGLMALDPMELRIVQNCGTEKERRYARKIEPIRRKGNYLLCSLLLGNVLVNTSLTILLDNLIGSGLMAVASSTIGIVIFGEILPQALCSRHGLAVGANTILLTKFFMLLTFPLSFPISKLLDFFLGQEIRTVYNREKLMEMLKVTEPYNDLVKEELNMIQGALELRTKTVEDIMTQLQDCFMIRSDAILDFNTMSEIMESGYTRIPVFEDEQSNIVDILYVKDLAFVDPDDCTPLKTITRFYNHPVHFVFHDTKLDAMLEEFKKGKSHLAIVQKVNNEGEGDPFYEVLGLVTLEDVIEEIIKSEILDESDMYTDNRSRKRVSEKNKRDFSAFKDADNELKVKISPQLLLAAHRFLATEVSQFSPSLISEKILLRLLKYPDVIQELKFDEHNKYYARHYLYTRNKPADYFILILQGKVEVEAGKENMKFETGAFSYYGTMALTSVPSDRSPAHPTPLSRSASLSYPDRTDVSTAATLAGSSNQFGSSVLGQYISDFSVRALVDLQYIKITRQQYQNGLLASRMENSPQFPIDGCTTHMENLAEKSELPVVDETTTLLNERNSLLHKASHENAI
UniProt Q8N5K1: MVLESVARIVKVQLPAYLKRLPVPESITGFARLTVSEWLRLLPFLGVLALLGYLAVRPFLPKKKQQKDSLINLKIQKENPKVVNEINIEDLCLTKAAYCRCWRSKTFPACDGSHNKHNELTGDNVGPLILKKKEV
UniProt P0C7P0: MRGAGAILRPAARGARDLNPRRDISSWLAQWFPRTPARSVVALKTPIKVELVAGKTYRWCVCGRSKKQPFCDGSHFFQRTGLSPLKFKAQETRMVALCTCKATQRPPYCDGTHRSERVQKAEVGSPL
UniProt Q9NX76: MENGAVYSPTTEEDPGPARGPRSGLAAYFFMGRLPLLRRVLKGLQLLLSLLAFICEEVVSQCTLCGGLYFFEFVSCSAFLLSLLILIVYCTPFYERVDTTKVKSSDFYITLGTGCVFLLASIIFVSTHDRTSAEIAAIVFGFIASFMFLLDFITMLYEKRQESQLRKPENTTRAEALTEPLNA
UniProt P39060, whole entry, looked up: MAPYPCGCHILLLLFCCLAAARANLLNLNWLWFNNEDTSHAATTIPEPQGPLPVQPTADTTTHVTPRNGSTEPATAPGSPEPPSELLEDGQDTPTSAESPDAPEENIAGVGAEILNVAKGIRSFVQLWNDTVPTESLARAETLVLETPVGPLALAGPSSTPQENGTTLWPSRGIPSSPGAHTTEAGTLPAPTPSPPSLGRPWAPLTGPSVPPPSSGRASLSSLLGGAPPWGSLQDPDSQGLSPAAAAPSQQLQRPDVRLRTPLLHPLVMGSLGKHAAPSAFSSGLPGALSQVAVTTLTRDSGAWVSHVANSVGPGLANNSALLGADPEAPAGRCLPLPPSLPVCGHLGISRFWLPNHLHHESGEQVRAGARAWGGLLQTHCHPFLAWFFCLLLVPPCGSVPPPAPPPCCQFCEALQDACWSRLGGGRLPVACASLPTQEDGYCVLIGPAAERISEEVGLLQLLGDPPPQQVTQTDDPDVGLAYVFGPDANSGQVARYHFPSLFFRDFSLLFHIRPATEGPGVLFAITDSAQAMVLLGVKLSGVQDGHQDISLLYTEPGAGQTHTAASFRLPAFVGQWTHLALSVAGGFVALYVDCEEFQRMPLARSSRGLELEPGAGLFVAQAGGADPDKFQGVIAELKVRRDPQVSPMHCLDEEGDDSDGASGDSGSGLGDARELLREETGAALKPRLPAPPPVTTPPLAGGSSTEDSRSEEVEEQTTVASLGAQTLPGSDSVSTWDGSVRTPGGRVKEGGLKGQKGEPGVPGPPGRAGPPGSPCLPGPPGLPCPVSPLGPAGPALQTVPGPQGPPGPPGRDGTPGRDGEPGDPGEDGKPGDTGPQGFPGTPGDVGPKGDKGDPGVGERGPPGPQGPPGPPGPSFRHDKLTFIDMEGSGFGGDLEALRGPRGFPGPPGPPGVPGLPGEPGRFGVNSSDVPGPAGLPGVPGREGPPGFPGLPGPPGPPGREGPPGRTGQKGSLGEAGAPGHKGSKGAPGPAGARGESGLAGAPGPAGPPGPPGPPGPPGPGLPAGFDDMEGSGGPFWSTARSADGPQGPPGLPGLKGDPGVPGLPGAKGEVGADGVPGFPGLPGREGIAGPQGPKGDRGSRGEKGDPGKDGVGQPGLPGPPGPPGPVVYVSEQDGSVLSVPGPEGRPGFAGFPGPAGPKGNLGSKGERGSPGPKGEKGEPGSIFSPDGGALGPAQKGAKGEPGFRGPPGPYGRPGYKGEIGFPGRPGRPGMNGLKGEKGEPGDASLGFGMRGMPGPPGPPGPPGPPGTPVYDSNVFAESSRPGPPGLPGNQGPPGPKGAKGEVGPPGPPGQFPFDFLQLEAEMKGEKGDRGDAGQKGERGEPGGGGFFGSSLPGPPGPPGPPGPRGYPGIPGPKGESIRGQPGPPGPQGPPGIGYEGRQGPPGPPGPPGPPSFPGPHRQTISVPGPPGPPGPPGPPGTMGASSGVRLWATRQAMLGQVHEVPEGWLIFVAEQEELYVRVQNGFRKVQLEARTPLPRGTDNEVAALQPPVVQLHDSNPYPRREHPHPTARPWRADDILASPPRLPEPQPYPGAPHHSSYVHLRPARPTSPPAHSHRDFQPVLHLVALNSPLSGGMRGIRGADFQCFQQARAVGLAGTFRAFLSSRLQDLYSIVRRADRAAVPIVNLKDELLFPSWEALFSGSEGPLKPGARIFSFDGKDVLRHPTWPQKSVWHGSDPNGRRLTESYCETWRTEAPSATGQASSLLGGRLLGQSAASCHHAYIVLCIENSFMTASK

Experiments:
Assay in all cases: log2 fold change, soluble protein after heating vs DMSO (PISA); higher = thermal stabilisation; K562 cells, 10 uM, 30 min; active = over 0.2 and 3.5 SD of the protein, either way, in both replicates (recomputed)
[1] = compound: CN1CCN(CCOc2cc(OC3CCOCC3)c3c(Nc4c(Cl)ccc5c4OCO5)ncnc3c2)CC1 [saracatinib]
How it was run: (§1)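 Soluble protein was quantified by TMTpro 16plex LC-MS/MS after channel sums were equalised. It was obtained as the supernatant after 21,000xg for 90 min from pooled aliquots of K562 cells (2×10^6 cells/mL, 10 μM compound, 30 min) heated for 3 min across 48°C-58°C and extracted in PBS with 0.5% NP-40 at 4°C. Thermal stability values are relative to control samples and come from duplicates. They are given as log2 fold changes.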

[2] = compound: CN1CCN(c2nc(C3=C(c4c[nH]c5ccccc45)C(=O)NC3=O)c3ccccc3n2)CC1 [sotrastaurin]
How it was run: as §1

[3] = compound: CN1CC[C@H](c2c(O)cc(O)c3c(=O)cc(-c4ccccc4Cl)oc23)[C@H](O)C1 [alvocidib]
How it was run: as §1

[4] = compound: CN1CCc2c(c3ccccc3n2Cc2ccc(C(=O)NO)cc2)C1 [Tubastatin A]
How it was run: as §1

[5] = compound: CNC(=O)C1=CC=CC=C1NC2=NC(=NC=C2Cl)NC3=C(C=C(C=C3)N4CCOCC4)OC
How it was run: as §1

[6] = compound: CNC(=O)c1ccc(Nc2ncc(C(F)(F)F)c(NCc3nccnc3N(C)S(C)(=O)=O)n2)cc1 [defactinib]
How it was run: as §1

[7] = compound: CNCc1ccc(-c2[nH]c3cc(F)cc4c3c2CCNC4=O)cc1 [rucaparib]
How it was run: as §1

[8] = compound: CNc1nc(-c2ccc3c(N)n[nH]c3c2)cc(N2C[C@@H](C(=O)NC3CCCCC3)CC[C@H]2C)n1
How it was run: as §1

[9] = compound: COC(=O)N[C@@H](C)CNc1nccc(-c2cn(C(C)C)nc2-c2cc(Cl)cc(NS(C)(=O)=O)c2F)n1 [encorafenib]
How it was run: as §1

[10] = compound: COC(=O)[C@H](CCSC)NC(=O)C1=C(C=C(C=C1)NC[C@H](CS)N)C2=CC=CC=C2
How it was run: as §1

Measured: log2 fold change

COA7 (UniProt Q96BR5)
inactive: [1] 0.018 | [2] -0.015 | [3] 0.04 | [4] -0.044 | [5] 0.016 | [6] 0.002 | [7] -0.093 | [8] -0.068 | [9] 0.002 | [10] 0.046

CLIP1 isoform 1 (UniProt P30622)
inactive: [1] 0.059 | [2] 0.022 | [3] -0.028 | [4] -0.02 | [5] 0.003 | [6] -0.009 | [7] -0.037 | [8] -0.012 | [9] -0.044 | [10] 0.025

CKAP5 (UniProt Q14008)
inactive: [1] -0.087 | [2] -0.184 | [3] -0.013 | [4] 0.023 | [5] -0.023 | [6] -0.01 | [7] 0.216 | [8] 0.096 | [9] 0.13 | [10] -0.067

CHRAC1 (UniProt Q9NRG0)
inactive: [1] 0.062 | [2] 0.012 | [3] -0.084 | [4] -0.05 | [5] -0.053 | [6] -0.075 | [7] -0.052 | [8] -0.045 | [9] 0.043 | [10] 0.028

CLASP1 (UniProt Q7Z460)
inactive: [1] -0.142 | [2] -0.246 | [3] -0.12 | [4] 0.034 | [5] -0.067 | [6] -0.114 | [7] 0.176 | [8] 0.034 | [9] 0.141 | [10] -0.099

CHURC1 isoform 2 (UniProt Q8WUH1)
inactive: [1] 0.063 | [2] 0.093 | [3] -0.044 | [4] 0.033 | [5] -0.008 | [6] -0.075 | [7] -0.1 | [8] 0.039 | [9] 0.015 | [10] 0.014

CMSS1 (UniProt Q9BQ75)
inactive: [1] -0.076 | [2] -0.123 | [3] 0.156 | [4] 0.098 | [5] 0.047 | [6] 0.322 | [7] 0.138 | [8] -0.129 | [9] 0.228 | [10] -0.038

CLPTM1 (UniProt O96005)
inactive: [1] -0.011 | [2] -0.001 | [3] -0.016 | [4] 0.022 | [5] 0.003 | [6] -0.018 | [7] -0.016 | [8] -0.042 | [9] 0.057 | [10] -0.04

CNOT9 isoform 2 (UniProt Q92600)
inactive: [1] 0.012 | [2] -0.025 | [3] -0.055 | [4] -0.012 | [5] 0.014 | [6] -0.023 | [7] 0.046 | [8] 0.004 | [9] 0.076 | [10] -0.014

CKMT1A (UniProt P12532)
inactive: [1] 0.029 | [2] 0.05 | [3] 0.026 | [4] -0.033 | [5] -0.019 | [6] -0.026 | [7] -0.011 | [8] -0.058 | [9] -0.02 | [10] 0.019

CIAPIN1 (UniProt Q6FI81)
inactive: [1] -0.009 | [2] -0.03 | [3] -0.073 | [4] -0.002 | [5] 0.018 | [6] -0.084 | [7] -0.102 | [8] -0.002 | [9] 0.03 | [10] -0.032

CLEC3B (UniProt P05452)
inactive: [1] 0.029 | [2] 0.342 | [3] 0.145 | [4] -0.137 | [5] -0.12 | [6] 0.112 | [7] -0.021 | [8] -0.054 | [9] 0.005 | [10] 0.147

CMPK1 (UniProt P30085)
inactive: [1] -0.019 | [2] 0.013 | [3] -0.012 | [4] -0.044 | [5] -0.007 | [6] -0.012 | [7] 0.026 | [8] -0.033 | [9] -0.012 | [10] -0.003

CNBP isoform 6 (UniProt P62633)
inactive: [1] 0.064 | [2] 0.059 | [3] 0.147 | [4] -0.101 | [5] 0.001 | [6] 0.062 | [7] 0.099 | [8] -0.005 | [9] -0.004 | [10] 0.075

CLEC16A (UniProt Q2KHT3)
inactive: [1] -0.007 | [2] 0.012 | [3] 0.034 | [4] 0.054 | [5] -0.012 | [6] -0.006 | [7] -0.111 | [8] 0.013 | [9] 0.001 | [10] 0.009

CLIP4 (UniProt Q8N3C7)
inactive: [1] -0.018 | [2] 0.103 | [3] -0.02 | [4] -0.054 | [5] -0.01 | [6] 0.012 | [7] -0.009 | [8] -0.045 | [9] -0.028 | [10] 0.045

CNNM4 (UniProt Q6P4Q7)
inactive: [1] 0.232 | [2] 0.043 | [3] -0.039 | [4] 0.04 | [5] -0.012 | [6] -0.106 | [7] 0.106 | [8] 0.055 | [9] -0.098 | [10] 0.004

CNOT8 (UniProt Q9UFF9)
inactive: [1] 0.004 | [2] -0.024 | [3] 0.072 | [4] -0.001 | [5] -0.031 | [6] -0.098 | [7] 0.075 | [8] 0.01 | [9] 0.061 | [10] 0.088

CISD2 (UniProt Q8N5K1)
inactive: [1] 0.027 | [2] 0.014 | [3] -0.016 | [4] -0.026 | [5] -0.025 | [6] -0.018 | [7] -0.029 | [8] -0.049 | [9] -0.032 | [10] 0.055

COL1A1 (UniProt P02452)
inactive: [1] 0.084 | [2] 0.321 | [3] 0.147 | [4] -0.213 | [5] -0.038 | [6] 0.206 | [7] -0.281 | [8] -0.002 | [9] -0.292 | [10] 0.42

CNOT3 (UniProt O75175)
inactive: [1] -0.003 | [2] -0.044 | [3] -0.005 | [4] -0.001 | [5] 0.049 | [6] -0.046 | [7] 0.091 | [8] 0.02 | [9] 0.174 | [10] -0.017

CISD3 (UniProt P0C7P0)
inactive: [1] 0.202 | [2] 0.055 | [3] -0.06 | [4] -0.031 | [5] -0.016 | [6] 0.009 | [7] -0.007 | [8] 0.036 | [9] -0.009 | [10] 0

CMTM6 (UniProt Q9NX76)
inactive: [1] 0.052 | [2] -0.043 | [3] 0.01 | [4] -0.086 | [5] -0.024 | [6] -0.112 | [7] 0.189 | [8] -0.023 | [9] -0.1 | [10] -0.116

Random excerpt: 2 records from the list, in no set order.
CISD2 (UniProt Q8N5K1)
inactive: [1] 0.027 | [2] 0.014 | [3] -0.016 | [4] -0.026 | [5] -0.025 | [6] -0.018 | [7] -0.029 | [8] -0.049 | [9] -0.032 | [10] 0.055

CNOT3 (UniProt O75175)
inactive: [1] -0.003 | [2] -0.044 | [3] -0.005 | [4] -0.001 | [5] 0.049 | [6] -0.046 | [7] 0.091 | [8] 0.02 | [9] 0.174 | [10] -0.017

Next part:

CIRBP isoform 2 (UniProt Q14011)
inactive: [1] -0.048 | [2] 0.112 | [3] 0.155 | [4] 0.003 | [5] 0.001 | [6] 0.245 | [7] 0.212 | [8] 0.016 | [9] 0.148 | [10] 0.002

COL18A1 (UniProt P39060)
inactive: [1] 0.002 | [2] 0.135 | [3] -0.045 | [4] 0.026 | [5] -0.073 | [6] 0.094 | [7] 0.048 | [8] -0.054 | [9] -0.071 | [10] -0.186

CMC1 (UniProt Q7Z7K0)
inactive: [1] 0.128 | [2] 0.004 | [3] 0.159 | [4] -0.013 | [5] -0.001 | [6] 0 | [7] -0.027 | [8] -0.178 | [9] -0.048 | [10] 0.173

CKM (UniProt P06732)
inactive: [1] -0.064 | [2] -0.106 | [3] -0.099 | [4] -0.043 | [5] -0.003 | [6] -0.017 | [7] 0.003 | [8] 0.113 | [9] 0.019 | [10] 0.029

CNOT11 (UniProt Q9UKZ1)
inactive: [1] 0.068 | [2] -0.04 | [3] 0.034 | [4] -0.106 | [5] 0.015 | [6] 0.002 | [7] 0.211 | [8] -0.053 | [9] 0.03 | [10] 0.039

CLGN (UniProt O14967)
inactive: [1] -0.074 | [2] -0.049 | [3] -0.012 | [4] 0.007 | [5] 0.154 | [6] -0.003 | [7] 0.002 | [8] 0.04 | [9] -0.003 | [10] 0.032

CNOT6L (UniProt Q96LI5)
inactive: [1] -0.033 | [2] -0.136 | [3] 0.03 | [4] 0.073 | [5] 0.009 | [6] -0.05 | [7] -0.069 | [8] -0.049 | [9] -0.084 | [10] 0.027
